# Source: patent US20110190199A1, “Combination Therapy for Tuberculosis” (priority 2008, published 2011)
# At least one structure is not confirmed: it was looked up by name or label, or the drawing left a doubt.
# Test system: M. tuberculosis H37Rv
# Experiment: Example 9: compound of formula I added to first and second line anti-tuberculosis drugs (survival, lung CFU after 4 weeks)
# Type: in vivo, mice
# Conditions: treatment from day 14 after infection; H 10, R 10, Z 150, Eb 100, M 100, Et 50, A 150 sc, Cs 250 twice daily, Ps 750, Cap 125 sc, C 20 mg/kg
compound,measurement,value
"Nc1ccc(C(=O)O)c(O)c1 [Ps, para-aminosalicyclic acid]",Proportion (%) surviving to Day 42 post-infection,0/4 (0%)
